{"source": "PubChem BioAssay AID652259 (Drosophila RNAi Screening Center, 2013)", "aim": "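Knock-downs that push a Wingless-driven reporter up or down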 (primary screen)", "cells": "Drosophila clone 8 imaginal disc epithelial cells", "reagents": "long dsRNA against Drosophila genes", "conditions": "pathway stimulated by co-transfected Wingless expression plasmid", "read-out": "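Dual luciferase reads per well after Wingless plasmid stimulation: reporter firefly light and Renilla control light; activity is firefly divided by Renilla, a ratio not deposited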", "direction": "firefly reporter light: higher = more Wg reporter light, before normalisation; Renilla control light: higher = more transfected or surviving cells", "rule for the call": "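Strong candidates differ from their plate mean by at least two out of four per-plate statistical tests; weak candidates meet just one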", "calls": "active = candidate regulator (raises or lowers reporter); inactive = not a candidate", "note": "In all, the deposit lists about 22,000 reagents; this is an unselected part of those that have a named target and a result. Over the whole deposit, 233 (1.1%) were called active. 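Light values are raw, unnormalised plate reads; the ratio scores behind the reporter calls were not deposited.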 Entries without a mark were called inactive. The numbers tell different reagents against one gene apart. No sequences are given here. The record does not give: the amount of reagent, the time to read-out, the dose of the treatment."}
{"Target gene": "lolal", "dsRNA no.": 1, "firefly reporter light, replicate 1": 17938, "Renilla control light, replicate 1": 5945}
{"Target gene": "gbb", "dsRNA no.": 1, "firefly reporter light, replicate 1": 2837, "firefly reporter light, replicate 2": 10069, "Renilla control light, replicate 1": 691, "Renilla control light, replicate 2": 2212}
{"Target gene": "wat", "dsRNA no.": 1, "firefly reporter light, replicate 1": 8928, "Renilla control light, replicate 1": 3703}
{"Target gene": "CG7798", "dsRNA no.": 1, "firefly reporter light, replicate 1": 6585, "Renilla control light, replicate 1": 2132}
{"Target gene": "CG42850 (retired record)", "dsRNA no.": 1, "firefly reporter light, replicate 1": 3191, "Renilla control light, replicate 1": 946}
{"Target gene": "CheB93b", "dsRNA no.": 1, "firefly reporter light, replicate 1": 2.88e5, "firefly reporter light, replicate 2": 3.25e5, "Renilla control light, replicate 1": 59841, "Renilla control light, replicate 2": 54950}
{"Target gene": "CG7227", "dsRNA no.": 1, "firefly reporter light, replicate 1": 9892, "Renilla control light, replicate 1": 3753}
{"Target gene": "sofe", "dsRNA no.": 1, "firefly reporter light, replicate 1": 2809, "firefly reporter light, replicate 2": 5560, "Renilla control light, replicate 1": 1131, "Renilla control light, replicate 2": 2096}
{"Target gene": "xmas", "dsRNA no.": 1, "firefly reporter light, replicate 1": 23637, "Renilla control light, replicate 1": 10827}
{"Target gene": "xmas", "dsRNA no.": 2, "firefly reporter light, replicate 1": 5.11e5, "firefly reporter light, replicate 2": 5.86e5, "Renilla control light, replicate 1": 1.47e5, "Renilla control light, replicate 2": 1.54e5}
{"Target gene": "CG13623", "dsRNA no.": 1, "firefly reporter light, replicate 1": 15005, "Renilla control light, replicate 1": 11420}
{"Target gene": "Cht11", "dsRNA no.": 1, "firefly reporter light, replicate 1": 21477, "Renilla control light, replicate 1": 10705}
{"Target gene": "CIA30", "dsRNA no.": 1, "firefly reporter light, replicate 1": 2769, "firefly reporter light, replicate 2": 6069, "Renilla control light, replicate 1": 1448, "Renilla control light, replicate 2": 2781}
{"Target gene": "CG17224", "dsRNA no.": 1, "firefly reporter light, replicate 1": 3062, "firefly reporter light, replicate 2": 6634, "Renilla control light, replicate 1": 1313, "Renilla control light, replicate 2": 2105}
{"Target gene": "Ir87a", "dsRNA no.": 1, "firefly reporter light, replicate 1": 22304, "Renilla control light, replicate 1": 4184}

3 of these entries, reformatted.
Target gene	dsRNA no.	firefly reporter light, replicate 1	firefly reporter light, replicate 2	Renilla control light, replicate 1	Renilla control light, replicate 2
Cht11	1	21477		10705	
CIA30	1	2769	6069	1448	2781
CG17224	1	3062	6634	1313	2105

More reagents:
{"Target gene": "Cad99C", "dsRNA no.": 1, "firefly reporter light, replicate 1": 9043, "Renilla control light, replicate 1": 2361}
{"Target gene": "Cad99C", "dsRNA no.": 2, "firefly reporter light, replicate 1": 2153, "firefly reporter light, replicate 2": 8177, "Renilla control light, replicate 1": 960, "Renilla control light, replicate 2": 2675}
{"Target gene": "ringer", "dsRNA no.": 1, "firefly reporter light, replicate 1": 4513, "Renilla control light, replicate 1": 2641}
{"Target gene": "Adsl", "dsRNA no.": 1, "firefly reporter light, replicate 1": 2721, "firefly reporter light, replicate 2": 8439, "Renilla control light, replicate 1": 1197, "Renilla control light, replicate 2": 2144}
{"Target gene": "sev", "dsRNA no.": 1, "firefly reporter light, replicate 1": 18893, "Renilla control light, replicate 1": 9462}
{"Target gene": "dmrt93B", "dsRNA no.": 1, "firefly reporter light, replicate 1": 13941, "Renilla control light, replicate 1": 3221}
{"Target gene": "CG30026", "dsRNA no.": 1, "firefly reporter light, replicate 1": 19269, "Renilla control light, replicate 1": 16043}
{"Target gene": "CCT1", "dsRNA no.": 1, "firefly reporter light, replicate 1": 37655, "Renilla control light, replicate 1": 8408}
{"Target gene": "CG7794", "dsRNA no.": 1, "firefly reporter light, replicate 1": 13869, "Renilla control light, replicate 1": 3397}
{"Target gene": "CG32079", "dsRNA no.": 1, "firefly reporter light, replicate 1": 7.09e5, "firefly reporter light, replicate 2": 6.05e5, "Renilla control light, replicate 1": 3.05e5, "Renilla control light, replicate 2": 588}
